The text below walks through data of publication PMC8278493.

The chains behind the UniProt entries cited, without tags or fusion partners. Where a name states a change or a piece, a line headed by the entry shows the natural chain unless it says otherwise.
UniProt O43156: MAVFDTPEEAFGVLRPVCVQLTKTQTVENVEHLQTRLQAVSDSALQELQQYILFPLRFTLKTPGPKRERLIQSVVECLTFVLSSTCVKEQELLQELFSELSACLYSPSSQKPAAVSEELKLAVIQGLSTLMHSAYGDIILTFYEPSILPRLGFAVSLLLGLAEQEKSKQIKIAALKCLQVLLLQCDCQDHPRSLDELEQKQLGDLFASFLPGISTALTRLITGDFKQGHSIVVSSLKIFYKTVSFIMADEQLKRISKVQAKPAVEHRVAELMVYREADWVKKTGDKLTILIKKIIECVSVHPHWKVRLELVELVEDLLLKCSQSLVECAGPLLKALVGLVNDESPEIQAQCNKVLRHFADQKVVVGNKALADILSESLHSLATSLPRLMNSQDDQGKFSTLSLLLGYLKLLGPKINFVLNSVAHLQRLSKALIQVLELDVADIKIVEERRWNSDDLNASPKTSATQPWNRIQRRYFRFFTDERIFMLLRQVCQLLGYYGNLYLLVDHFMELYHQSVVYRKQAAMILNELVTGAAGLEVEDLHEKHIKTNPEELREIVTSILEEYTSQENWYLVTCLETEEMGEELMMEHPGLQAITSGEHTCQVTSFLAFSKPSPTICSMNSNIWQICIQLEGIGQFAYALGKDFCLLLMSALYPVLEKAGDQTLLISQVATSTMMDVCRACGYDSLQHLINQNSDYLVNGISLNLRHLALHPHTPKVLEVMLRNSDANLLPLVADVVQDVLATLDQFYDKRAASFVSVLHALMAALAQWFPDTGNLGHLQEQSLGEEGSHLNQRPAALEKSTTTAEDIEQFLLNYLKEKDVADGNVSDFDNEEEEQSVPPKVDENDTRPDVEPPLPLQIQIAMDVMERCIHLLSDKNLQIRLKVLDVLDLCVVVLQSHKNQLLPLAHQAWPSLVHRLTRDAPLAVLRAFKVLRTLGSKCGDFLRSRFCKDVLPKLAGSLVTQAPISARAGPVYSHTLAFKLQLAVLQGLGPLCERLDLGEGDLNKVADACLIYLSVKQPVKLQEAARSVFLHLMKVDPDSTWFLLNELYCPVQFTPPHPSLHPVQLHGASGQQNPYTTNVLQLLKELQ

Results are given in words; binding and its absence hold for the method and conditions named. In cells and extracts the contact can be indirect. Some entries that bind do so weakly or less than the wild type. For part of these data: Tags and fused reporters may be left off the sequences shown.

Assay [1] addresses Strep-TTI1(468-1089), human (human) (UniProt O43156). Description: pull-down; strep-tag pull-down from Sf9 cells co-expressing strep-TTI1 constructs with GST-TTI2 (Figure S4).
The target in assay [2] is T1, GST-tagged full-length human TTI2 (human) (UniProt Q6NXR4).
T1 sequence: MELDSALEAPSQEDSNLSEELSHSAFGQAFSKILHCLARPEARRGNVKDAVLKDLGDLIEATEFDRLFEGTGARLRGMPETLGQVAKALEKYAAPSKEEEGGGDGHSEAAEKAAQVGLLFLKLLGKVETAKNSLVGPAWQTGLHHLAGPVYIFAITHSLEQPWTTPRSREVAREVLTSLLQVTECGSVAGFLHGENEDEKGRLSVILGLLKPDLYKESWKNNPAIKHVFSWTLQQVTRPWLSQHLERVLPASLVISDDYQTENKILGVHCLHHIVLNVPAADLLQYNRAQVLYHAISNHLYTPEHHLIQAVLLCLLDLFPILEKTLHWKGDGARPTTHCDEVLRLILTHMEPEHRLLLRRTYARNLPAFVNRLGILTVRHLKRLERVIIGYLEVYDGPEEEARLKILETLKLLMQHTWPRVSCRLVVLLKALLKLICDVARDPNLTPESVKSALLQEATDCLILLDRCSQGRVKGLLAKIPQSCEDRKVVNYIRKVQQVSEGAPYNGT
Description: pull-down; glutathione beads, from Sf9 cells co-expressing GST-TTI2 constructs with TTI1 constructs.

Assay [3] deals with T2, GST-TTI2(1-193), human (human) (UniProt Q6NXR4).
T2 sequence: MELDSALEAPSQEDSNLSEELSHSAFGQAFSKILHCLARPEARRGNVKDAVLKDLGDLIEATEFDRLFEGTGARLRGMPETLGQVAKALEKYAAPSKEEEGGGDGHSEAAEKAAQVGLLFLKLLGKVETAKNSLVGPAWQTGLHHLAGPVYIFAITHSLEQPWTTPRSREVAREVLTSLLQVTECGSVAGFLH
Described as above.

Consider “GST-tagged full-length human TTI2 (from UniProt Q6NXR4 1-508)”, for which the binding entry in assay [1] was “binds”. On to “Strep-TTI1(468-1089), human (from UniProt O43156 468-1089) (domain or fragment)”, for which the binding result in assay [2] was “binds”. For the substance “human TTI1, full length, untagged (from UniProt O43156 1-1089)”, the binding entry in assay [3] was “binds”.
